# Values of other authors in US20250115576A1, “THERAPEUTIC COMPOUNDS AND METHODS OF USE THEREOF” (Genentech, Inc., priority 2018, published 2025).
# Conditions: administered topically (Lidoderm patch); cited from earlier work
structure (smiles),measurement,value
CCN(CC)CC(=O)Nc1c(C)cccc1C [lidocaine],plasma concentrations,about 1 μM
